Results reported in the supplement of paper PMC5407854, “Inhibitor of ppGalNAc-T3-mediated O-glycosylation blocks cancer cell invasiveness and lowers FGF23 levels” (eLife, 2017).
The full ranking holds about 1,700 compounds; the median of “T3 sensor activation Q score (MG/GFP ratio z-score vs DMSO controls)” is about 0.25, and the highest 2% start at about 1.9. Some of the results follow.

Test system: ppGalNAc-T3 sensor
Experiment: T3 sensor activation Q score (MG/GFP ratio z-score vs DMSO controls) (SD units); higher = more sensor activation (inhibition of ppGalNAc-T3 glycosylation)
Details: HEK293 sensor cells; 10 µM; 6 h
Experimental: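 Cells were treated with compound at 10 uM for 6 h, then MG/GFP ratio was read by flow cytometry (10,000 cells per well, duplicate wells). Q = (R - R_neg)/SD_neg relative to DMSO vehicle controls; the signal rises when the glycosyltransferase is inhibited.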

| Compound | T3 sensor activation Q score |
| --- | --- |
| CCOC(=O)N1C/C(=C\c2ccccc2)C(=O)/C(=C/c2ccccc2)C1 | -0.15 |
| COc1cnc(SC)nc1Nc1ccc(C#N)cc1 | 1.5 |
| OC(c1cc(C(F)(F)F)nc2c(Cl)cc(Cl)cc12)C1CCCCN1 (stereo not drawn) | -1.2 |
| C[C@@H](CN1CC(=O)NC(=O)C1)N1CC(=O)NC(=O)C1 | -0.6 |
| Cc1nc(/N=C(/N)N(C)C)[nH]c(=O)c1C | 1.05 |
| Fc1ccc(-c2cc(-c3cccs3)cc(-c3ccccc3)n2)cc1 | 0.45 |
| Oc1cc(CNC2CCCCC2)c(O)cc1CNC1CCCCC1 | 0.65 |
| CCOc1nc(OCC)c2cnn(C)c2n1 | 0.55 |
| NC(=O)c1ccc(N=Nc2c(O)c3ccccc3[nH]c2=O)cc1 | 0.5 |
| NC(N)=NCCCS(=O)(=O)Nc1ccc(Nc2c3ccccc3nc3cc([N+](=O)[O-])ccc23)cc1 | -0.75 |
| O=c1c2ccccc2ncn1-c1ccc(Cl)cc1 | 0.25 |
| S=C1NC2(CCCCCC2)NN1c1ccccc1 | 0.5 |
| COC1OC(O)C(NC(=O)C(F)(F)F)CC1O (stereo not drawn) | 1.55 |
| Nc1cc([N+](=O)[O-])ccc1N1C(=O)CCCC1=O | 0.9 |
| CCc1c(N=O)c(-c2ccccc2)n(O)[n+]1[O-] | 1 |
| COC(=O)c1c(-c2ccccc2)[nH]c(-c2nccc3ccccc23)c1C(=O)OC | 0.5 |
| O=C(O)c1ccc2c(c1Nc1ccccc1)C(=O)c1ccccc1C2=O | 0.8 |

| Compound | T3 sensor activation Q score |
| --- | --- |
| O=NN(CCCl)C(=O)NC1CCCCC1 | 0.45 |
| CSc1nc(=O)[nH]nc1Sc1ccccc1 | -1.1 |
| Cc1cccc(Nc2sc(C(=O)c3cc4cc(Cl)ccc4o3)c(N)c2C#N)c1 | 1.05 |
| Cc1ccc(NC(=O)Nc2c(Cl)cccc2Cl)cn1 | -0.65 |
| Cn1c(=O)c2c(nc(Cc3ccccc3)n2C)n(C)c1=O | 1.9 |
| O=C1c2ccccc2C(=O)c2[nH]cnc21 | 1.1 |
| COC(=O)c1ccc(C(=O)OC)c(=O)[nH]1 | 1.65 |
| Cc1cc(=O)c2c(C)ccc(C)c2[nH]1 | -0.45 |
| Cc1nc2cc[nH]n2c(=O)c1CCc1ccccc1 | 0.05 |
| COc1ccccc1/C=C/C(=O)/C=C/c1ccccc1O | -1.3 |
| COC(=O)Cc1[nH]c(=S)[nH]c1C(=O)OC | 0.85 |
| CC(=O)[C@H]1CC[C@H]2[C@@H]3CCC4=CC(=O)C=C[C@]4(C)[C@H]3C(=O)C[C@]12C | 1.7 |
| CC(=O)[C@H]1CC[C@H]2[C@@H]3CCC4=CC(=O)CC[C@]4(C)[C@@]3(F)[C@@H](O)C[C@]12C | 0.55 |
| N#CC1=C(Nc2ccccc2Cl)SC(c2ccccc2O)NC1=O (stereo not drawn) | -0.7 |
| CN(C)S(=O)(=O)Nc1cccc(Br)c1 | 1.8 |
| CC1CCC(C(C)C)C(NC(=O)c2ccncc2)C1 (stereo not drawn) | -0.3 |

Three structures already listed, ordered by SMILES length, high to low:

| Compound | T3 sensor activation Q score |
| --- | --- |
| COC(=O)Cc1[nH]c(=S)[nH]c1C(=O)OC | 0.85 |
| O=C1c2ccccc2C(=O)c2[nH]cnc21 | 1.1 |
| CN(C)S(=O)(=O)Nc1cccc(Br)c1 | 1.8 |
